Laboratory results published in publication PMC8630059.
Results are given in words; binding and its absence hold for the method and conditions named. Binding seen in cells or lysates may run through a third protein. Here binding means that the protein was enriched with, or labelled near, the bait; the list need not be complete.

Protein sequences, listed by entry. Tags and fused reporters are not part of them.
UniProt Q96EB6: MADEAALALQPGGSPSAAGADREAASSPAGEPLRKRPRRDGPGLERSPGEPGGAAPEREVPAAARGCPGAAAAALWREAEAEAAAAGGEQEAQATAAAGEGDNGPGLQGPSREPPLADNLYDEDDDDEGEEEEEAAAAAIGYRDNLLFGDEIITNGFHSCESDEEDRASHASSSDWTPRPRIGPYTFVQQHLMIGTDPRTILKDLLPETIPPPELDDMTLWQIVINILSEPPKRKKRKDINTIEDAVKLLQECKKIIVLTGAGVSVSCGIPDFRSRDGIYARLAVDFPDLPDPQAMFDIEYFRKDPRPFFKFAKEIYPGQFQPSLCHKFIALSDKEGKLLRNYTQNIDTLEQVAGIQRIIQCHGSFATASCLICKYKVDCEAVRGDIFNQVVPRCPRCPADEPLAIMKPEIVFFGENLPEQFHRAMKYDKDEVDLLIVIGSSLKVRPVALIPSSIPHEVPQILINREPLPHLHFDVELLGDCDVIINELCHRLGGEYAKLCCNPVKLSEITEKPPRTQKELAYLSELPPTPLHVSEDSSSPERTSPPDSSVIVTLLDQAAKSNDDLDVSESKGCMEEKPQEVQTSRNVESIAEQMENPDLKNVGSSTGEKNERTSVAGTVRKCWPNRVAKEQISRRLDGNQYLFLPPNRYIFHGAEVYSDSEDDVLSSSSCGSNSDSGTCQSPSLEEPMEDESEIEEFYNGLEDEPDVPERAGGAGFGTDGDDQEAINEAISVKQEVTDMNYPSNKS
UniProt Q16531: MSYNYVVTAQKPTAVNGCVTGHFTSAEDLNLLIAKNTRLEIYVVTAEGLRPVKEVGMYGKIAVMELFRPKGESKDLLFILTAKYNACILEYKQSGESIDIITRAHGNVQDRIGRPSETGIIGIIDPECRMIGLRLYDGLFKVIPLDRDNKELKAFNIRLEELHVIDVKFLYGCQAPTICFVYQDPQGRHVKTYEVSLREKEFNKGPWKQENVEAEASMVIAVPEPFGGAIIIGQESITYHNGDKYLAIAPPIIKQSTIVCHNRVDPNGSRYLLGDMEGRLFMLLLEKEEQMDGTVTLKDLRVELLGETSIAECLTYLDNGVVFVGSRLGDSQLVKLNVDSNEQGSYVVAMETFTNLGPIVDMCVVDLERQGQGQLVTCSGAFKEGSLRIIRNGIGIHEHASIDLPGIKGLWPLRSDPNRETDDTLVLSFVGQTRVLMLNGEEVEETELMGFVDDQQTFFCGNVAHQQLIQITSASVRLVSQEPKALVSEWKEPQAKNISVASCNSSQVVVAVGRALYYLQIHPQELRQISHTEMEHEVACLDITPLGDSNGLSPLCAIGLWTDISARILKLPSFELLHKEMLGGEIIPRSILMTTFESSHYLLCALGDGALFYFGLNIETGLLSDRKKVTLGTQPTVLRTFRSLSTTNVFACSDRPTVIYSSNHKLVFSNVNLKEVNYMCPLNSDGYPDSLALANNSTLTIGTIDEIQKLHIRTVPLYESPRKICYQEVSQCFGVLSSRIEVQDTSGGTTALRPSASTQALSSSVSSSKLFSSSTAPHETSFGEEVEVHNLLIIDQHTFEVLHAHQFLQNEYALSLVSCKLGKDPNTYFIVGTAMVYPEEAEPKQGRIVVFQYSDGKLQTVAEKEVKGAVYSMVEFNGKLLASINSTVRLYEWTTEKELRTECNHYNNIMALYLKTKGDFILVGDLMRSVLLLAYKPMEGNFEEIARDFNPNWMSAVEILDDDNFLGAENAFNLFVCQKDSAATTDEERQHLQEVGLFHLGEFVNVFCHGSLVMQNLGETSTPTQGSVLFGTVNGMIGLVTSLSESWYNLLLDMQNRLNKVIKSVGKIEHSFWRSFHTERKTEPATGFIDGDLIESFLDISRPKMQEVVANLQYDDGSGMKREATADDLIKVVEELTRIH
UniProt O75530: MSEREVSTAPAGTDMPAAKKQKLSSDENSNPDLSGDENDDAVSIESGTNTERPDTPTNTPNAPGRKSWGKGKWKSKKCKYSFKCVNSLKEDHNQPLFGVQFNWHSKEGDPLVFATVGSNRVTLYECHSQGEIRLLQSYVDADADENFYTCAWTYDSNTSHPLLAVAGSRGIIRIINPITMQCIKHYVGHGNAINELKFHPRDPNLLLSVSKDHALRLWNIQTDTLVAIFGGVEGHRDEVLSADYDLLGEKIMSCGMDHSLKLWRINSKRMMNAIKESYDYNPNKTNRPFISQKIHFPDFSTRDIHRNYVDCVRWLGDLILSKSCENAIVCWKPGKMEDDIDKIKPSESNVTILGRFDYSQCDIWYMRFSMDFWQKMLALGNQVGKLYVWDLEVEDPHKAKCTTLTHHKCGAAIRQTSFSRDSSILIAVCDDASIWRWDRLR
UniProt Q13547: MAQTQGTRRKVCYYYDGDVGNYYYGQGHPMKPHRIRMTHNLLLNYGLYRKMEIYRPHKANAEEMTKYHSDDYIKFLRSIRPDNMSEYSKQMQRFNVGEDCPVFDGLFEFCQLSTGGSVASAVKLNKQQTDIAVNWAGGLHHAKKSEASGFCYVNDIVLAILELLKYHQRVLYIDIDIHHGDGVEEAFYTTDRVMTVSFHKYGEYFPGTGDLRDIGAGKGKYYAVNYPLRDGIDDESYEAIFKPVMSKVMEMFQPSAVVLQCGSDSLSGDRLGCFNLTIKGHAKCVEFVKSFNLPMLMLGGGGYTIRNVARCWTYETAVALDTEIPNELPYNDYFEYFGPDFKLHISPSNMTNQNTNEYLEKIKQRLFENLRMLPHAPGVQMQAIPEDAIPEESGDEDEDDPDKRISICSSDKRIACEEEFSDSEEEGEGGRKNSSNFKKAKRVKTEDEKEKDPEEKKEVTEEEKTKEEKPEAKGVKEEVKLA
UniProt Q92769: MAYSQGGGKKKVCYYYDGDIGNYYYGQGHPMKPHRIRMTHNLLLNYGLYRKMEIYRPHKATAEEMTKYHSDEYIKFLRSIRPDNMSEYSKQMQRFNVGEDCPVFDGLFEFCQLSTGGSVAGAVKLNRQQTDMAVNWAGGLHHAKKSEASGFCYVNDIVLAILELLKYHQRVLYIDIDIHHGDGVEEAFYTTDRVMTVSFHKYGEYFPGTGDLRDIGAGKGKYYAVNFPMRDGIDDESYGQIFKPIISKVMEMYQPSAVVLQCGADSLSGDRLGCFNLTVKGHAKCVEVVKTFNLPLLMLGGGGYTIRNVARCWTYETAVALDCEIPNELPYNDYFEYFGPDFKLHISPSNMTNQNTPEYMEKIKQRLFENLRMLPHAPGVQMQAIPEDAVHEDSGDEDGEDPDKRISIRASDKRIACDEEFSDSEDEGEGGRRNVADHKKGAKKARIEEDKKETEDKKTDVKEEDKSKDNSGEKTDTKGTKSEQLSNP

B1: SAP30 (protein, UniProt O75446 1-220)
chain: MNGFTPDEMSRGGDAAAAVAAVVAAAAAAASAGNGTGAGTGAEVPGAGAVSAAGPPGAAGPGPGQLCCLREDGERCGRAAGNASFSKRIQKSISQKKVKIELDKSARHLYICDYHKNLIQSVRNRRKRKGSDDDGGDSPVQDIDTPEVDLYQLQVNTLRRYKRHFKLPTRPGLNKAQLVEIVGCHFRSIPVNEKDTLTYFIYSVKNDKNKSDLKVDSGVH

What follows are molecules tested against FLAG-tagged SIRT1 (human) (UniProt Q96EB6) (assay: affinity purification with mass spectrometry; whole-cell extracts of PANC-1 cells stably expressing FLAG-SIRT1 on anti-FLAG M2 affinity columns, eluted with FLAG peptide (0.2 mg/ml); SDS-PAGE, silver stain, LC-MS/MS of the bands).

binding, binds:
DDB1 (endogenous) (from UniProt Q16531 1-1140)
EED (from UniProt O75530 1-441)
HDAC1 (from UniProt Q13547 1-482) (enzyme)
HDAC2 (from UniProt Q92769 1-488) (enzyme)
B1
